Structures can show the parent of a compound that is named as a salt. The list shows a part of the results. Most values come without repeats; read them as rough.
The compounds below were run on p95-ErbB2-MCF7 (assay: perinuclear lysosome accumulation (PNLA, size of LAMP2 puncta), robust Z-score vs plate median; higher = more perinuclear lysosome accumulation (reversal of invasive lysosome distribution)). Conditions: 5 µM; 24 h.
OCCOCCN1CCN(C(c2ccccc2)c2ccc(Cl)cc2)CC1 (stereo unspecified) [Hydroxyzine dihydrochloride] was tested, and the perinuclear lysosome accumulation was 1.61.
Work on CN(C)CCCO[C@@H]1[C@H]2OC(C)(C)O[C@H]2O[C@@H]1[C@H](O)CO [Amiprilose hydrochloride] yielded a perinuclear lysosome accumulation of 0.535.
With C[C@]12CC[C@@H]3c4ccc(O)cc4CC[C@H]3[C@@H]1C[C@@H](O)[C@@H]2O [Estriol] the perinuclear lysosome accumulation was 0.177.
For CC[N+](CC)(CC)CCC(O)(c1ccccc1)C1CCCCC1 (stereo unspecified) [Tridihexethyl chloride], the perinuclear lysosome accumulation was 0.51.
In the case of CCc1cccc2c3c([nH]c12)C(CC)(CC(=O)O)OCC3 (stereo unspecified) [Etodolac], the perinuclear lysosome accumulation is reported as 0.363.
Cc1noc(NS(=O)(=O)c2ccc(N)cc2)c1C [Sulfisoxazole] showed a perinuclear lysosome accumulation of 0.224.
CC(Oc1c(Cl)cccc1Cl)C1=NCCN1 (stereo unspecified) [Lofexidine] showed a perinuclear lysosome accumulation of -1.68.
In the case of CC1=C(CC(=O)O)c2cc(F)ccc2/C1=C\c1ccc([S+](C)[O-])cc1 (stereo unspecified) [Sulindac], the perinuclear lysosome accumulation is reported as 0.234.
For CCOC(=O)[C@H](CCc1ccccc1)N[C@@H](C)C(=O)N1CCC[C@H]1C(=O)O [Enalapril maleate], the perinuclear lysosome accumulation was -0.37.
Compound CO/N=C(\C(=O)N[C@@H]1C(=O)N2C(C(=O)O)=C(C[N+]3(C)CCCC3)CS[C@H]12)c1csc(N)n1 [Cefepime hydrochloride] has a perinuclear lysosome accumulation of 1.23.
With CC(Oc1ccccc1)C(=O)N[C@@H]1C(=O)N2[C@@H]1SC(C)(C)[C@@H]2C(=O)O (stereo partly specified) [Phenethicillin potassium salt] the perinuclear lysosome accumulation was -0.124.
Compound N[C@@H](C(=O)N[C@@H]1C(=O)N2C(C(=O)O)=C(Cl)CS[C@H]12)c1ccccc1 [Cefaclor] has a perinuclear lysosome accumulation of -1.14.
With COc1ccc(C(=O)NCc2ccc(OCCN(C)C)cc2)cc1OC [Itopride] the perinuclear lysosome accumulation was 0.00768.
O=C1c2ccccc2S(=O)(=O)N1CCCCN1CCN(c2ncccn2)CC1 [Ipsapirone] gave a perinuclear lysosome accumulation of -1.27.
Compound Cn1c([N+](=O)[O-])cnc1COC(N)=O [Ronidazole] has a perinuclear lysosome accumulation of 0.493.
CN(C)[C@@H]1C(O)=C(C(N)=O)C(=O)[C@@]2(O)C(O)=C3C(=O)c4c(O)ccc(Cl)c4[C@@H](O)[C@H]3C[C@@H]12 [Demeclocycline hydrochloride] gave a perinuclear lysosome accumulation of -0.545.
In the case of c1ccc2c(c1)CCCc1cc(NCCN3CCOCC3)nnc1-2, the perinuclear lysosome accumulation is reported as 0.596.
Nc1cc(-c2ccncc2)c[nH]c1=O [Amrinone] showed a perinuclear lysosome accumulation of -1.04.
CC(N)C12CC3CC(CC(C3)C1)C2 (stereo unspecified) [Rimantadine] was tested, and the perinuclear lysosome accumulation was 0.81.
Compound CCC(=O)OCC(=O)[C@@]1(OC(=O)CC)[C@H](C)C[C@H]2[C@H]3[C@H]([C@@H](O)C[C@@]21C)[C@@]1(C)C=CC(=O)C=C1C[C@H]3Cl [Alclometasone dipropionate] has a perinuclear lysosome accumulation of 0.153.
CN(CCOc1ccc(CC2SC(=O)NC2=O)cc1)c1ccccn1 (stereo unspecified) [Rosiglitazone] was tested, and the perinuclear lysosome accumulation was 0.148.
In the case of CCCc1nc(C(C)(C)O)c(C(=O)O)n1Cc1ccc(-c2ccccc2-c2nnn[nH]2)cc1 [Olmesartan], the perinuclear lysosome accumulation is reported as 0.428.
In the case of OC(CCN1CCCCC1)(c1ccccc1)C1CCCCC1 (stereo unspecified) [Trihexyphenidyl-D,L Hydrochloride], the perinuclear lysosome accumulation is reported as 0.542.
With N=C(N)N/N=C/c1c(Cl)cccc1Cl [Guanabenz acetate] the perinuclear lysosome accumulation was -0.191.
CN(C)CCOC(=O)COc1ccc(Cl)cc1 [Meclofenoxate hydrochloride] gave a perinuclear lysosome accumulation of 1.72.
In the case of CCOc1ccc(NC(C)=O)cc1 [Phenacetin], the perinuclear lysosome accumulation is reported as 0.432.
Work on CN1CCC[C@@H]1CCO[C@](C)(c1ccccc1)c1ccc(Cl)cc1 [Clemastine fumarate] yielded a perinuclear lysosome accumulation of 3.19.
COc1cc2ncnc(Nc3ccc(F)c(Cl)c3)c2cc1OCCCN1CCOCC1 [Gefitinib] showed a perinuclear lysosome accumulation of 4.1.
CC(C(=O)O)c1ccc(C(=O)c2cccs2)cc1 (stereo unspecified) [Suprofen] gave a perinuclear lysosome accumulation of -0.437.
With CCCCC[C@H](O)/C=C/[C@H]1[C@H](O)CC(=O)[C@@H]1CCCCCCC(=O)O [Alprostadil] the perinuclear lysosome accumulation was -0.663.
Compound CCN1CCC[C@H]1CNC(=O)c1c(O)c(Cl)cc(Cl)c1OC [Raclopride] has a perinuclear lysosome accumulation of 0.156.
NCc1ccc(S(N)(=O)=O)cc1 [Mafenide hydrochloride] was tested, and the perinuclear lysosome accumulation was 1.19.
Work on CN[C@@H]1[C@H](O[C@H]2[C@H](O[C@H]3[C@H](O)[C@@H](O)[C@H](NC(=N)N)[C@@H](O)[C@@H]3NC(=N)N)O[C@@H](C)[C@]2(O)CO)O[C@@H](CO)[C@H](O)[C@H]1O [Dihydrostreptomycin sulfate] yielded a perinuclear lysosome accumulation of 0.972.
Compound CC/C(=C(\c1ccccc1)c1ccc(OCCN(C)C)cc1)c1ccccc1 [Tamoxifen citrate] has a perinuclear lysosome accumulation of 1.38e-05.
CCc1oc2ccccc2c1C(=O)c1cc(Br)c(O)c(Br)c1 [Benzbromarone] was tested, and the perinuclear lysosome accumulation was 0.428.
In the case of C#C[C@]1(O)CC[C@H]2[C@@H]3CCC4=C(CCC(=O)C4)[C@H]3CC[C@@]21C [Norethynodrel], the perinuclear lysosome accumulation is reported as -1.08.
Compound CC[N+](CC)(CC)CCOc1cccc(OCC[N+](CC)(CC)CC)c1OCC[N+](CC)(CC)CC [Gallamine triethiodide] has a perinuclear lysosome accumulation of 0.646.
In the case of CCOC(=O)[N-]c1c[n+](N2CCOCC2)no1 [Molsidomine], the perinuclear lysosome accumulation is reported as 0.435.
For NS(=O)(=O)c1cc2c(cc1Cl)NC(CC1CCCC1)NS2(=O)=O (stereo unspecified) [Cyclopenthiazide], the perinuclear lysosome accumulation was -1.21.
For CC(C)(C)NCC(O)c1cc(O)cc(O)c1 (stereo unspecified) [Terbutaline hemisulfate], the perinuclear lysosome accumulation was -0.111.
O=C(OCCOCCO)c1ccccc1Nc1cccc(C(F)(F)F)c1 [Etofenamate] gave a perinuclear lysosome accumulation of -0.703.
With O=C(O)[C@H]1/C(=C/CO)O[C@@H]2CC(=O)N21 [Potassium clavulanate] the perinuclear lysosome accumulation was 0.965.
Compound Cc1cnc(C(=O)O)c[n+]1[O-] [Acipimox] has a perinuclear lysosome accumulation of -0.481.
CC(C)(C)NC[C@H](O)COc1ccccc1C1CCCC1 [Penbutolol sulfate] was tested, and the perinuclear lysosome accumulation was 1.79.
With COc1ccc(C(=O)c2ccccc2O)c(O)c1 [Dioxybenzone] the perinuclear lysosome accumulation was 0.382.
With Cc1cnc(C(=O)NCCc2ccc(S(=O)(=O)NC(=O)NC3CCCCC3)cc2)cn1 [Glipizide] the perinuclear lysosome accumulation was -1.67.
Work on CCC1NC(=O)c2cc(S(N)(=O)=O)c(Cl)cc2N1 (stereo unspecified) [Quinethazone] yielded a perinuclear lysosome accumulation of 0.0378.
COc1ccccc1N1CCN(CCCCNC(=O)c2ccc3ccccc3c2)CC1 gave a perinuclear lysosome accumulation of 1.02.
Compound CC(O)(P(=O)(O)O)P(=O)(O)O [Etidronic acid, disodium salt] has a perinuclear lysosome accumulation of -1.01.
CCN(CC)CCOc1ccc(C(=C(Cl)c2ccccc2)c2ccccc2)cc1 [Clomiphene citrate (Z,E)] gave a perinuclear lysosome accumulation of -0.082.
CCCCNc1ccc(C(=O)OCCN(C)C)cc1 gave a perinuclear lysosome accumulation of 0.129.
CN(C)[C@@H]1C(O)=C(C(=O)NCNCCCC[C@H](N)C(=O)O)C(=O)[C@@]2(O)C(O)=C3C(=O)c4c(O)cccc4[C@@](C)(O)[C@H]3C[C@@H]12 [Lymecycline] gave a perinuclear lysosome accumulation of 0.761.
CN1CCOC(c2ccccc2)c2ccccc2C1 (stereo unspecified) [Nefopam hydrochloride] was tested, and the perinuclear lysosome accumulation was -0.661.
Compound CN1CCC(=C2c3ccccc3CCc3sccc32)CC1 [Pizotifen malate] has a perinuclear lysosome accumulation of -1.73.
Cc1ccccc1C(OCCN(C)C)c1ccccc1 (stereo unspecified) [Orphenadrine hydrochloride] showed a perinuclear lysosome accumulation of -0.456.
For O=C1C(O)=C([C@H]2CC[C@H](c3ccc(Cl)cc3)CC2)C(=O)c2ccccc21 [Atovaquone], the perinuclear lysosome accumulation was 1.29.
Work on CC(C)NCC(O)c1ccc(O)c(O)c1 (single isomer, unassigned; (-)) [(-)-Isoproterenol hydrochloride] yielded a perinuclear lysosome accumulation of 1.09.
NC(=O)NC1NC(=O)NC1=O (stereo unspecified) [Allantoin] was tested, and the perinuclear lysosome accumulation was 2.47.
In the case of CN(C)CCOC(c1ccc(Cl)cc1)c1ccccn1 (stereo unspecified) [Carbinoxamine maleate salt], the perinuclear lysosome accumulation is reported as -0.593.
Work on O=C1CCc2ccc(OCCCCN3CCN(c4cccc(Cl)c4Cl)CC3)cc2N1 [Aripiprazole] yielded a perinuclear lysosome accumulation of -0.0423.
COC(=O)C1=C(C)NC(C)=C(C(=O)OCC(C)C)C1c1ccccc1[N+](=O)[O-] (stereo unspecified) [Nisoldipine] showed a perinuclear lysosome accumulation of 1.35.
Compound CN1CCN(c2c(F)cc3c(=O)c(C(=O)O)cn4c3c2SCC4)CC1 [Rufloxacin] has a perinuclear lysosome accumulation of -0.257.
Compound CCC(C)n1ncn(-c2ccc(N3CCN(c4ccc(OCC5COC(Cn6cncn6)(c6ccc(Cl)cc6Cl)O5)cc4)CC3)cc2)c1=O (stereo unspecified) [Itraconazole] has a perinuclear lysosome accumulation of 3.8.
For Cc1cccc(Nc2ccccc2C(=O)O)c1C [Mefenamic acid], the perinuclear lysosome accumulation was -1.2.
Work on C[n+]1ccccc1/C=N/O [Pralidoxime chloride] yielded a perinuclear lysosome accumulation of 0.725.
Compound O=C(O)CCNC(=O)c1ccc(/N=N/c2ccc(O)c(C(=O)O)c2)cc1 [Balsalazide Sodium] has a perinuclear lysosome accumulation of -0.364.
In the case of O=C1OC(CN2CCOCC2)CN1/N=C/c1ccc([N+](=O)[O-])o1 (stereo unspecified) [Furaltadone hydrochloride], the perinuclear lysosome accumulation is reported as -0.225.
O=C1NCCN1CCN1CCC(c2cn(-c3ccc(F)cc3)c3ccc(Cl)cc23)CC1 [Sertindole] showed a perinuclear lysosome accumulation of 2.52.
With O=C1CCC(N2C(=O)c3ccccc3C2=O)C(=O)N1 (stereo unspecified) [Thalidomide] the perinuclear lysosome accumulation was -0.873.
Compound Clc1ccc(C(Cn2ccnc2)OCc2csc3c(Cl)cccc23)c(Cl)c1 (stereo unspecified) [Sertaconazole nitrate] has a perinuclear lysosome accumulation of -0.423.
CC(=O)OCC1=C(C(=O)O)N2C(=O)[C@@H](NC(=O)Cc3cccs3)[C@H]2SC1 [Cephalothin sodium salt] showed a perinuclear lysosome accumulation of 0.97.
CCN(CC)CCNC(=O)COc1ccc(OC)cc1 [Mefexamide hydrochloride] showed a perinuclear lysosome accumulation of 0.155.
Work on CCCCc1nc(Cl)c(CO)n1Cc1ccc(-c2ccccc2-c2nnn[nH]2)cc1 [Losartan] yielded a perinuclear lysosome accumulation of 0.417.
CC1(C)S[C@@H]2[C@H](NC(=O)Cc3ccccc3)C(=O)N2[C@H]1C(=O)O [Benzylpenicillin sodium] was tested, and the perinuclear lysosome accumulation was 0.99.
CC1(C)S[C@@H]2[C@H](NC(=O)Cc3ccccc3)C(=O)N2[C@H]1C(=O)O [Benzathine benzylpenicillin] was tested, and the perinuclear lysosome accumulation was -1.56.
For CCC(=O)OCC(=O)[C@@]1(OC(=O)CC)[C@@H](C)C[C@H]2[C@@H]3CCC4=CC(=O)C=C[C@]4(C)[C@@]3(Cl)[C@@H](O)C[C@@]21C [Beclomethasone dipropionate], the perinuclear lysosome accumulation was -0.584.

From the supplement of paper PMC8090911
